Values of other authors as cited in patent EP4640213A1, “ORAL PHARMACEUTICAL PREPARATION COMPRISING SODIUM-GLUCOSE COTRANSPORTER-2 INHIBITOR AND ANGIOTENSIN II RECEPTOR BLOCKER” (THPharm Corp., priority 2022, dated 2024).

Conditions: background art; cited from earlier work

CCCc1nc2c(C)cc(-c3nc4ccccc4n3C)cc2n1Cc1ccc(-c2ccccc2C(=O)O)cc1 [Telmisartan, 4'-[(1,4'-dimethyl-2'-propyl[2,6'-bi-1H-benzimidazol]-1'-yl)methyl][1,1'-biphenyl]-2-carboxylic acid]
difference in solubility by pH: ≥ 100 times
